Where a name gives a salt, the structure may show the parent alone. ± gives the standard deviation of the averaged measurements. Some of the results follow.

The subject of this assay is APPdp1-6 iPSC-derived neurons. Briefly: pThr231Tau/total Tau ratio Z-score vs DMSO vehicle wells; higher = more pThr231Tau relative to total Tau. The note with it: 5 µM; treatment time 5 days.
As to `CCN(CC)CCOCCOC(=O)C(CC)(CC)c1ccccc1`, the “pThr231Tau/total Tau ratio Z-score” value stood at 1.67 ± 1.5.
The figure for `CCCOc1ccc(C(=O)OCCN(CC)CC)cc1N` [Prestw-959] is 0.742 ± 0.8; for `Nc1nc2c(ncn2CCC(CO)CO)c(=O)[nH]1` [Prestw-1488] it is -1.29 ± 1.6; for `CC(N=C(NC#N)Nc1ccncc1)C(C)(C)C` (centres undefined) [Prestw-246] it is 0.476 ± 1.8.
Take `CC(=O)OCC(=O)[C@@]1(OC(C)=O)[C@@H](C)C[C@H]2[C@@H]3C[C@H](F)C4=CC(=O)C=C[C@]4(C)[C@@]3(F)[C@@H](O)C[C@@]21C` [Prestw-619]: the “pThr231Tau/total Tau ratio Z-score” value worked out at 1.24 ± 1.1.
Turning to `CC(CN(C)C)C(C)(O)Cc1ccc(Cl)cc1` (centres undefined) [Prestw-1380], the “pThr231Tau/total Tau ratio Z-score” value was -0.636 ± 0.36.
The figure for `C[C@]1(Cn2ccnn2)[C@H](C(=O)O)N2C(=O)C[C@H]2S1(=O)=O` [Prestw-1349] is -0.311 ± 1.1; for `CC[C@@H](CO)NCCN[C@@H](CC)CO` [Prestw-28] it is -0.479 ± 0.7; for `C=CCOC(Cn1ccnc1)c1ccc(Cl)cc1Cl` (centres undefined) [Prestw-963] it is -1.14 ± 0.2.
`CC(=O)OCC(=O)[C@H]1CC[C@H]2[C@@H]3CCC4=CC(=O)CC[C@]4(C)[C@H]3CC[C@]12C`: the “pThr231Tau/total Tau ratio Z-score” value was -0.568 ± 0.41.
Regarding `CC(CN(C)C)CN1c2ccccc2Sc2ccccc21` (centres undefined) [Prestw-842], the “pThr231Tau/total Tau ratio Z-score” value is -1.73 ± 0.48.
Take `CC1(C)[C@@H](OC(=O)CCC(=O)O)CC[C@]2(C)[C@H]3C(=O)C=C4[C@@H]5C[C@@](C)(C(=O)O)CC[C@]5(C)CC[C@@]4(C)[C@]3(C)CC[C@@H]12` [Prestw-837]: the “pThr231Tau/total Tau ratio Z-score” value turned out to be 0.229 ± 0.037.
In the case of `C#C[C@]1(O)CC[C@H]2[C@@H]3CCC4=CC(=O)CC[C@@H]4[C@H]3CC[C@@]21CC` [Prestw-773], the “pThr231Tau/total Tau ratio Z-score” value is -0.846 ± 0.23.
As to `CO/N=C(\C(=O)N[C@@H]1C(=O)N2C(C(=O)OC(C)OC(C)=O)=C(COC(N)=O)CS[C@H]12)c1ccco1` (some centres undefined) [CEFUROXIME AXETIL    Therap cat: antibiotic], the “pThr231Tau/total Tau ratio Z-score” value was -0.593 ± 0.48.
Take `CCCSc1ccc2nc(NC(=O)OC)[nH]c2c1` [Prestw-247]: the “pThr231Tau/total Tau ratio Z-score” value is -4.24 ± 0.8.
On to `Cc1cc(N)c2ccccc2[n+]1CCCCCCCCCC[n+]1c(C)cc(N)c2ccccc21` [Prestw-388], for which the “pThr231Tau/total Tau ratio Z-score” value is -4.86 ± 1.6.
Turning to `Nc1ccn([C@@H]2CS[C@H](CO)O2)c(=O)n1` [Prestw-1298], the “pThr231Tau/total Tau ratio Z-score” value is -0.894 ± 0.59.
The figure for `Nc1c2c(nc3ccccc13)CCCC2O` (centres undefined) [Prestw-448] is -0.0568 ± 0.6; for `COc1ccccc1OCC(O)COC(N)=O` (centres undefined) [Prestw-184] it is -0.359 ± 1.5; for `NC1CCN(c2nc3c(cc2F)c(=O)c(C(=O)O)cn3-c2ccc(F)cc2F)C1` (centres undefined) [Prestw-1464] it is 1.23 ± 0.21.
As for `COC(=O)Nc1nc2cc([S+]([O-])c3ccccc3)ccc2[nH]1` (centres undefined) [Prestw-1459], the “pThr231Tau/total Tau ratio Z-score” value is -0.438 ± 1.5.
`c1ccc(CNc2ncnc3nc[nH]c23)cc1` [Prestw-189]: the “pThr231Tau/total Tau ratio Z-score” value is -0.269 ± 0.17.
With `CCCOc1ccccc1-c1nc2n[nH]nc2c(=O)[nH]1` [Prestw-335], the “pThr231Tau/total Tau ratio Z-score” value stood at 0.38 ± 1.6.
In the case of `CC(=O)Oc1cccc(C)c1` [meta-CRESYL ACETATE], the “pThr231Tau/total Tau ratio Z-score” value worked out at 0.356 ± 0.72.
`FC(F)(F)COCC(F)(F)F` [FLUROTHYL, central stimulant, convulsant]: the “pThr231Tau/total Tau ratio Z-score” value came to 0.593 ± 2.8.
The figure for `CN1Cc2c(N)cccc2C(c2ccccc2)C1` (centres undefined) [Prestw-108] is -1.5 ± 0.97; for `O=C1NC(=O)C(c2ccccc2)(c2ccccc2)N1` [Anticonvulsant; anti-epileptic] it is 1.33 ± 2.3; for `CC(C)(O)c1ccccc1CC[C@@H](SCC1(CC(=O)O)CC1)c1cccc(/C=C/c2ccc3ccc(Cl)cc3n2)c1` [MONTELUKAST SODIUM, leucotriene antagonist, antiasthmatic] it is 0.704 ± 1.5.
`CC(C)(O)c1ccccc1CC[C@@H](SCC1(CC(=O)O)CC1)c1cccc(/C=C/c2ccc3ccc(Cl)cc3n2)c1` [Prestw-1189]: the “pThr231Tau/total Tau ratio Z-score” value is -0.866 ± 0.68.
On to `CCN[C@@H]1C[C@H](N)[C@@H](O[C@H]2OC(CN)=CC[C@H]2N)[C@H](O)[C@H]1O[C@H]1OC[C@](C)(O)[C@H](NC)[C@H]1O` [NETILMICIN SULFATE, antibacterial], for which the “pThr231Tau/total Tau ratio Z-score” value came out at 1.41 ± 0.28.
Consider `OCc1ccccc1O` [SALICYL ALCOHOL    Therap cat:  Local anesthetic], for which the “pThr231Tau/total Tau ratio Z-score” value was found to be 0.915 ± 1.5.
The figure for `O=C(c1ccccc1)c1ccc2n1CCC2C(=O)O` (centres undefined) [Prestw-929] is 0.71 ± 0.99.
Turning to `CCOC(=O)[C@@](C)(N)Cc1ccc(O)c(O)c1` [Prestw-1038], the “pThr231Tau/total Tau ratio Z-score” value is -1.11 ± 0.84.
Turning to `COc1c(N2CCNC(C)C2)c(F)cc2c(=O)c(C(=O)O)cn(C3CC3)c12` (centres undefined) [Prestw-1265], the “pThr231Tau/total Tau ratio Z-score” value was 0.203 ± 0.29.
Take `O=c1ccc2ccccc2o1` [Coumarin]: the “pThr231Tau/total Tau ratio Z-score” value stood at 1.98 ± 0.12.
In the case of `CN(C)CCCN1c2ccccc2Sc2ccc(Cl)cc21` [Prestw-64], the “pThr231Tau/total Tau ratio Z-score” value was -1.03 ± 0.51.
In the case of `CCOc1ccccc1OC(c1ccccc1)C1CNCCO1` (centres undefined) [Prestw-1328], the “pThr231Tau/total Tau ratio Z-score” value amounted to 0.00712 ± 0.2.
Consider `O=c1[nH]cnc2c1ncn2[C@@H]1O[C@H](CO)[C@@H](O)[C@H]1O` [INOSINE    Therap cat: activates cellular functions], for which the “pThr231Tau/total Tau ratio Z-score” value was -0.291 ± 1.7.
On to `COc1cc([C@@H]2c3cc4c(cc3[C@@H](O[C@@H]3O[C@@H]5CO[C@@H](c6cccs6)O[C@H]5[C@H](O)[C@H]3O)[C@H]3COC(=O)[C@H]23)OCO4)cc(OC)c1O` [TENIPOSIDE    Therap cat: antineoplastic], for which the “pThr231Tau/total Tau ratio Z-score” value is -4.66 ± 0.79.
